Measured values reported in patent publication US20090312411A1, “PREVENTING OR REDUCING RISK OF MISCARRIAGES” (New York Society for the Raptured and Crippled Maintaining …, priority 2008, published 2009).
“Also recorded” adds a separate entry of the source. For at least one compound, name, drawing or mass did not settle the structure.

Legend:
[1] = system: murine model of antiphospholipid syndrome (APS); experiment: Fetal resorption in murine model of APS (aPL-treated pregnant mice); type: in vivo, mouse; conditions: for fetal resorption rate (number of resorptions per total number of formed fetuses and resorptions): pregnant mice given aPL on days 8 and 12, statin 18 hours prior, FIG. 2, FIG. 6
Description: Protocol. […] The stock solution was diluted to the appropriate concentration in sterile PBS.
Protocol. Pregnant C57BL/6 mice were treated with IgG (10 mg i.p.) from a healthy non-autoimmune individual (NH-IgG), or different patients with APS (aPL-IgG) on days 8 and 12 of pregnancy. Mice were sacrificed on day 15 of pregnancy, uteri were dissected, fetuses were weighed, and frequency of fetal resorption calculated (number of resorptions/number of fetuses+number of resorptions).
(§1) Protocol. Pregnant mice were treated with pravastatin (0.2 μg/g bw=5 μg/mouse, i.p 18 hours prior to aPL or NHIgG injections on days 8 and 12). Pravastatin (Sigma Chemical, St Louis, Mo.) was dissolved in EtOH at a concentration of 10 mg/mL and diluted with NaCl 0.9% in a ratio of 1:1000 to yield a final concentration of 10 μg pravastatin per 1 mL carrier. The NaCl 0.9%-based carrier solution for the placebo group was prepared accordingly to include EtOH only (i.e., without pravastatin) at a concentration of 1:1000.

[2] = system: mouse TF; experiment: TF mRNA expression, real-time PCR; type: in vivo; conditions: neutrophils from aPL-treated mice, normalized for GAPDH, FIG. 4
[3] = system: mouse protease-activated receptor 2 (PAR-2); experiment: PAR-2 mRNA expression, real-time PCR; type: in vivo; conditions: neutrophils from aPL-treated mice, normalized for GAPDH, FIG. 4
[4] = system: decidual tissue; experiment: Superoxide production in decidual tissue by dihydroethidium fluorescence (APS model); type: in vivo, mouse
[5] = system: murine model of APS; experiment: Fetal weight / IUGR in murine model of APS; type: in vivo, mouse; conditions: aPL-treated mice, statin i.p. 18 hours prior to aPL on days 8 and 12, day 15; FIG. 8, FIG. 9
[6] = system: CBA/J×DBA/2 mice; experiment: Fetal resorption frequency in CBA/J×DBA/2 matings (non aPL-dependent recurrent miscarriage); type: in vivo, mouse; conditions: for fetal resorption / fetal loss: CBA/J×DBA/2 matings, day 15 of pregnancy, FIG. 7, 15A, 17A
Source text: Protocol. DBA/2-mated female CBA/J mice (CBA/J×DBA/2) are a well-studied model of immunologically mediated pregnancy loss that shares features with human recurrent miscarriage (Clark, D A et al., 1998, J. Immunol. 160:545-549; Blois, M. et al., 2005, J. Immunol. 174:1820-1829). Embryonic lethality in DBA/2-mated female CBA/J mice is believed to represent rejection of the semiallogeneic placenta by maternal-derived activated effectors. 8-10-wk-old virgin female CBA/J mice were mated with 8-14-wk-old CBA/J, BALB/c, or DBA/2 males. Females were inspected daily for vaginal plugs, and presence of a vaginal plug was designated as day 0 of pregnancy. A group of DBA/2- and BALB/c mated CBA/J females were treated with pravastatin (0.2 μg/g bw=5 μg/mouse, i.p) on days 5, 6 and 7 of pregnancy. […] Pregnant females were euthanized on day 15 and fetal resorption frequency was calculated.
Animals. Inbred CBA/J (H-2k), DBA/2 (H-2d) and BALB/c (H-2d) mice from The Jackson Laboratory were used. 8-10-wk-old virgin female CBA/J mice were mated with 8-14-wk-old BALB/c, or DBA/2 males. Pregnant females were sacrificed at day 7 and at day 15. The frequency of fetal resorption was calculated on day 15 as previously described (Girardi et al., 2006, J Exp Med 203:2165-2175). Fetal weights were also determined. Procedures that involved mice were approved by the Institutional Animal Care and Use Committee of the Hospital for Special Surgery and were conducted in strict accordance with guidelines for the care and use of laboratory research animals promulgated by the National Institutes of Health (NIH).
TF Blockade. To block TF a group of mice were treated with i.p. injections of anti-mTF antibody 1H1 (provided by Daniel Kirchhofer, Genentech, San Francisco Calif.) (0.5 mg) (16) or an isotype-matched control antibody (rat IgG2 ? Zymed Laboratories Inc, CA) (0.5 mg) on days 4, 7 and 10 of pregnancy.
Monocyte Depletion. […]
(§2) Protocol. […] Nitric oxide (NO) was measured by a calorimetric method (R&D Systems). Plasma sVEGFR-1 was measured with a commercial ELISA kit (R&D Systems).

[7] = system: CBA/J×DBA/2 mice; experiment: Fetal weight / IUGR in CBA/J×DBA/2 matings; type: in vivo, mouse; conditions: day 15 of pregnancy, FIG. 10, 15B, 17B
Description: as §1, with “Protocol. 8-10-wk-old virgin female CBA/J mice were mated with 8-14-wk-old CBA/J, BALB/c, or DBA/2 males. Females were inspected daily for vaginal plugs, and presence of a vaginal plug was designated as day 0 of pregnancy.” for “Protocol.”, “1:1000. Pregnant females were euthanized on day 15 and weights of fetuses were determined.” for “1:1000.”
Animals. Inbred CBA/J (H-2k), DBA/2 (H-2d) and BALB/c (H-2d) mice from The Jackson Laboratory were used. 8-10-wk-old virgin female CBA/J mice were mated with 8-14-wk-old BALB/c, or DBA/2 males. Pregnant females were sacrificed at day 7 and at day 15. The frequency of fetal resorption was calculated on day 15 as previously described (Girardi et al., 2006, J Exp Med 203:2165-2175). Fetal weights were also determined. […]
as §2

[8] = system: CBA/J×DBA/2 mice; experiment: Litter size at birth in CBA/J×DBA/2 matings; type: in vivo, mouse; conditions: CBA/J×DBA/2 mice followed until delivery; FIG. 15C, 17C
Description: Measuring Thrombin-Anti-Thrombin Complexes. Thrombin anti thrombin III complex (TAT) was measured using a commercial ELISA kit (Enzygnost TAT; Dade Behring). Some mice from each experimental group were studied until delivery and the litter sizes were recorded at birth.

[9] = system: placentas from CBA/J×DBA/2 matings; experiment: Placental superoxide production, DHE fluorescence, CBA/J×DBA/2; type: in vivo, mouse; conditions: CBA/J×DBA/2 mice, FIG. 16B, 17D
[10] = system: mouse TF; experiment: TF immunohistochemistry in deciduas and placentas, CBA/J×DBA/2; type: in vivo; conditions: CBA/J×DBA/2 mice, FIG. 15D, 17D
[11] = system: fibrin; experiment: Fibrin immunohistochemistry in placentas, CBA/J×DBA/2; type: in vivo, mouse; conditions: CBA/J×DBA/2 mice, FIG. 17D
[12] = system: NO; experiment: Plasma nitric oxide (NO) in CBA/J×DBA/2 mice; type: in vivo, mouse; conditions: FIG. 17E
[13] = system: placental blood flow; experiment: Placental perfusion with FITC-labeled dextran; type: in vivo, mouse; conditions: CBA/J×DBA/2 mice, FIG. 17F
[14] = system: SM9-1 trophoblast cells; experiment: SM9-1 trophoblast cell proliferation, light microscopy; type: cell-based, mouse; conditions: SM9-1 cells incubated with sFlt-1 or monocyte supernatants, 72 hours; VEGF 500 pg/ml; pravastatin 5 μg/ml 3 hours prior
Description: (§3) Protocol. SM9-1 trophoblast cells, derived from a gestational day 9 Swiss-Webster mouse placenta (SM9-1) (Bowen et al., Biol Reprod 60:428-434.), were incubated with the supernatants from monocytes incubated with C5a containing high levels of sFlt-1 (Girardi et al., 2006, J Exp Med 203:2165-2175). Some SM9-1 cells were incubated in the presence of increasing amounts of mouse sFlt-1 (R&D Systems) (1000, 2000, 4000 and 8000 pg/ml). After 72 hours, cell proliferation was evaluated by light microscopy. Some SM9-1 cells were incubated with pravastatin (5 μg/ml) for 3 hours prior to incubation with sFlt-1. Mouse VEGF (500 pg/ml) (R&D systems) was added to some SM9-1 incubated with sFlt-1 or monocytes supernatants. Immunohistochemical identification of TF with 1H1 and superoxide production by DHE was performed on the SM9-1 cells after 72 hours of culture.
(§4) Protocol. SM9-1 trophoblast cells were prepared as described in Example 21. Isolated SM9-1 cells were incubated in the presence of increasing amounts of mouse sFlt-1 (R&D Systems) (1000, 2000, 4000 and 8000 pg/ml). After 72 hours, cell proliferation was evaluated by light microscopy. SM9-1 cells were also incubated with pravastatin (5 μg/ml) for 3 hours prior to incubation with sFlt-1. Immunohistochemical identification of TF with 1H1 and superoxide production by DHE was performed on the SM9-1 cells after 72 hours of culture as described above.

[15] = system: SM9-1 trophoblast cells; experiment: SM9-1 trophoblast superoxide production by DHE; type: cell-based, mouse; conditions: SM9-1 cells incubated with sFlt-1 or monocyte supernatants, 72 hours; VEGF 500 pg/ml; pravastatin 5 μg/ml 3 hours prior
Description: as §3, §4

[16] = system: TF; experiment: SM9-1 trophoblast TF immunohistochemistry with 1H1; type: cell-based, mouse; conditions: SM9-1 cells incubated with sFlt-1 or monocyte supernatants, 72 hours; VEGF 500 pg/ml; pravastatin 5 μg/ml 3 hours prior
Description: as §3, §4

[17] = system: TF; experiment: Immunocytochemical TF staining in monocytes treated with C5a; type: cell-based, mouse; conditions: previously incubated with pravastatin, data not shown
[18] = system: Isoprostane 8-iso-prostaglandin F2a (STAT-8); experiment: Placental STAT-8 (8-isoprostane) EIA, oxidative stress marker; type: in vivo, mouse; conditions: CBA/J×DBA/2 mice, day 15 placentas, FIG. 16A
Description: STAT-8 Measurements. Isoprostane 8-iso-prostaglandin F2a (STAT-8) was measured as a marker for oxidative stress. Placental tissue was harvested at day 15 of pregnancy and homogenized in 9 volumes of 0.1 M Tris pH 7.4 containing 1 mM EDTA and 10 μM indomethacin and stored at −80° C. in the presence of 0.005% BHT before assayed for free 8-isoprostane using a STAT-8-Isoprostane EIA kit (Cayman Chemical Company, Ann Arbor, Mich.).

For `CCC(C)(C)C(=O)O[C@H]1C[C@@H](C)C=C2C=C[C@H](C)[C@H](CC[C@@H]3C[C@@H](O)CC(=O)O3)[C@H]21` [Simvastatin, simvastatin], the “fetal resorption rate (number of resorptions per total number of formed fetuses and resorptions)” value [1] was “Statistically significant difference was also observed between aPL and aPL+simvastatin”, the “fetal resorptions in uterus” value ([1]; uterus from a mouse treated with aPL+simvastatin, day 15, FIG. 3) was “no fetal resorptions” and the “TF mRNA copies” value [2] was “prevented this synthesis increase”. For the same compound, the “PAR-2 mRNA copies” value [3] was “prevented this synthesis increase”, the “free-radical-mediated lipid peroxidation in deciduas” value ([4]; aPL+simvastatin mice, FIG. 5) was “comparable to deciduas from NHIgG-treated mice” and the “oxidative stress (superoxide production, DHE) in deciduas” value ([4]; aPL-treated mice, deciduas day 8, FIG. 5) was “is not observed”.
In the case of `CC[C@H](C)C(=O)O[C@H]1C[C@H](O)C=C2C=C[C@H](C)[C@H](CC[C@@H](O)C[C@@H](O)CC(=O)O)[C@H]21` [pravastatin], the “fetal resorption rate (number of resorptions per total number of formed fetuses and resorptions)” value [1] is reported as “Statistically significant difference was also observed between aPL and aPL+pravastatin”, the “IUGR / fetal weight” value [5] is reported as “No diminution in fetal weight was observed” and the “pregnancy outcomes in control matings” value ([6]; CBA/J×BALB/c matings, data not shown) is reported as “has no effects”. For the same compound, the “fetal resorption / fetal loss” value [6] was “prevented fetal resorption; also recorded: prevented fetal loss”, the “IUGR / growth restriction (fetal weight)” value [7] was “prevented fetal loss (FIG. 17A) and IUGR” and the “litter size at birth” value [8] was “beneficial effects”. For the same compound, the “placental superoxide production / oxidative stress” value [9] was “prevented oxidative stress”, the “TF staining / expression in deciduas or placentas” value [10] was “decreased TF expression” and the placental fibrin deposition [11] was “inhibited placental fibrin deposition”. For the same compound, the “plasma NO levels” value [12] was “not different from control matings”, the placental blood flow [13] was “restored placental blood flow” and the “cell proliferation / cell growth” value [14] was “restored cell growth”. For the same compound, the “superoxide production / oxidative damage (DHE)” value [15] was “prevented oxidative damage”, the “TF staining / expression” value [16] was “prevented TF expression” and the “TF staining in monocytes” value [17] was “minimal TF staining”.
With `CO[C@H]1O[C@H](COS(=O)(=O)O)[C@@H](O[C@@H]2O[C@@H](C(=O)O)[C@@H](O[C@H]3O[C@H](COS(=O)(=O)O)[C@@H](O[C@@H]4O[C@H](C(=O)O)[C@@H](O[C@H]5O[C@H](COS(=O)(=O)O)[C@@H](O)[C@H](O)[C@H]5NS(=O)(=O)O)[C@H](O)[C@H]4O)[C@H](OS(=O)(=O)O)[C@H]3NS(=O)(=O)O)[C@H](O)[C@H]2OS(=O)(=O)O)[C@H](O)[C@H]1NS(=O)(=O)O` [Fondaparinox] the “fetal resorption / fetal loss” value [6] was “prevented fetal loss”, the “IUGR / growth restriction (fetal weight)” value [7] was “prevented fetal loss and growth restriction” and the “litter size at birth” value [8] was “increasing the litter size”. For the same compound, the “placental STAT-8 increase” value [18] was “prevented STAT-8 increase”.
